Laboratory results taken from PMC4558130.
These are yes or no findings as the source states them, for the method shown. In cells and extracts the contact can be indirect. Some entries that bind do so weakly or less than the wild type. For some assays here: Sequences can lack the tags named with a protein.

Chains of the proteins cited; added tags and fusions are not shown.
UniProt Q04206: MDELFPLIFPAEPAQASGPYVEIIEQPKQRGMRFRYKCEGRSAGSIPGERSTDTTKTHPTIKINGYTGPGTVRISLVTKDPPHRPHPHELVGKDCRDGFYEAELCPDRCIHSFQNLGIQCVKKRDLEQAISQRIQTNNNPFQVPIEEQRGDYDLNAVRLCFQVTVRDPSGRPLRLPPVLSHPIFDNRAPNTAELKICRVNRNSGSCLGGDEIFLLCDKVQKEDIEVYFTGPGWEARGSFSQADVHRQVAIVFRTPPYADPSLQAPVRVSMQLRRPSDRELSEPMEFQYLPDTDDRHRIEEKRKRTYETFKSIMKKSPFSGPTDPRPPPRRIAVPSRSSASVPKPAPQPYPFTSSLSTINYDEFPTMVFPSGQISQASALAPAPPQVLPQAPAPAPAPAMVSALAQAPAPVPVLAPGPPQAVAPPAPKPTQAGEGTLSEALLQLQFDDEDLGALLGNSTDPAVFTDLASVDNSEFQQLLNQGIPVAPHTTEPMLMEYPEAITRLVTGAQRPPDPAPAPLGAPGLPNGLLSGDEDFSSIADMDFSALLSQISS

Legend:
[1] = biological target: T1, RRAD-Flag (wild type) (human) (UniProt P55042); experiment: co-IP; H1299 cells expressing RRAD-Flag (WT or deletion mutant) and p65-HA; lysates in NP-40 buffer (50mM Tris-HCl pH 7.5, 1% NP-40, 150mM NaCl, 5 mM EDTA); IP with anti-Flag M2 or anti-HA overnight; Western blot
T1 sequence: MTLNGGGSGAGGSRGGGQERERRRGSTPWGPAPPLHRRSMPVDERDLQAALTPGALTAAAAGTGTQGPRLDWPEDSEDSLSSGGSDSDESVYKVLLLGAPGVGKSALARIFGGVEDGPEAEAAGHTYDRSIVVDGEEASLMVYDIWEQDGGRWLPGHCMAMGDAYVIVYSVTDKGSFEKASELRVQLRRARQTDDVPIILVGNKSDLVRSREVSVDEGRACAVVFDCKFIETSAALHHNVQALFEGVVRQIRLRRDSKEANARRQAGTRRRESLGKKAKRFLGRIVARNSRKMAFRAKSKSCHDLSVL

[2] = biological target: T2, endogenous RRAD (human (endogenous in H1299)) (UniProt P55042); experiment: co-IP; endogenous RRAD and endogenous p65 in H1299 cells; IP antibody not stated
T2 sequence: T1 sequence

Row | Substance | binding [1] | binding [2]
1 | p65-HA (from UniProt Q04206 1-551) | binds | 
2 | endogenous p65 (from UniProt Q04206 1-551) |  | binds
